Results taken from the supplement of paper PMC11732987, “Enantioselective OTUD7B fragment discovery through chemoproteomics screening and high-throughput optimisation” (Communications Chemistry, 2025).
The list shows a part of the results. The data scatter; read single values as rough.

The chains behind the UniProt entries cited, without tags or fusion partners. Where a name states a change or a piece, a line headed by the entry shows the natural chain unless it says otherwise. Residues count along the entry.
UniProt O75643, whole entry, looked up: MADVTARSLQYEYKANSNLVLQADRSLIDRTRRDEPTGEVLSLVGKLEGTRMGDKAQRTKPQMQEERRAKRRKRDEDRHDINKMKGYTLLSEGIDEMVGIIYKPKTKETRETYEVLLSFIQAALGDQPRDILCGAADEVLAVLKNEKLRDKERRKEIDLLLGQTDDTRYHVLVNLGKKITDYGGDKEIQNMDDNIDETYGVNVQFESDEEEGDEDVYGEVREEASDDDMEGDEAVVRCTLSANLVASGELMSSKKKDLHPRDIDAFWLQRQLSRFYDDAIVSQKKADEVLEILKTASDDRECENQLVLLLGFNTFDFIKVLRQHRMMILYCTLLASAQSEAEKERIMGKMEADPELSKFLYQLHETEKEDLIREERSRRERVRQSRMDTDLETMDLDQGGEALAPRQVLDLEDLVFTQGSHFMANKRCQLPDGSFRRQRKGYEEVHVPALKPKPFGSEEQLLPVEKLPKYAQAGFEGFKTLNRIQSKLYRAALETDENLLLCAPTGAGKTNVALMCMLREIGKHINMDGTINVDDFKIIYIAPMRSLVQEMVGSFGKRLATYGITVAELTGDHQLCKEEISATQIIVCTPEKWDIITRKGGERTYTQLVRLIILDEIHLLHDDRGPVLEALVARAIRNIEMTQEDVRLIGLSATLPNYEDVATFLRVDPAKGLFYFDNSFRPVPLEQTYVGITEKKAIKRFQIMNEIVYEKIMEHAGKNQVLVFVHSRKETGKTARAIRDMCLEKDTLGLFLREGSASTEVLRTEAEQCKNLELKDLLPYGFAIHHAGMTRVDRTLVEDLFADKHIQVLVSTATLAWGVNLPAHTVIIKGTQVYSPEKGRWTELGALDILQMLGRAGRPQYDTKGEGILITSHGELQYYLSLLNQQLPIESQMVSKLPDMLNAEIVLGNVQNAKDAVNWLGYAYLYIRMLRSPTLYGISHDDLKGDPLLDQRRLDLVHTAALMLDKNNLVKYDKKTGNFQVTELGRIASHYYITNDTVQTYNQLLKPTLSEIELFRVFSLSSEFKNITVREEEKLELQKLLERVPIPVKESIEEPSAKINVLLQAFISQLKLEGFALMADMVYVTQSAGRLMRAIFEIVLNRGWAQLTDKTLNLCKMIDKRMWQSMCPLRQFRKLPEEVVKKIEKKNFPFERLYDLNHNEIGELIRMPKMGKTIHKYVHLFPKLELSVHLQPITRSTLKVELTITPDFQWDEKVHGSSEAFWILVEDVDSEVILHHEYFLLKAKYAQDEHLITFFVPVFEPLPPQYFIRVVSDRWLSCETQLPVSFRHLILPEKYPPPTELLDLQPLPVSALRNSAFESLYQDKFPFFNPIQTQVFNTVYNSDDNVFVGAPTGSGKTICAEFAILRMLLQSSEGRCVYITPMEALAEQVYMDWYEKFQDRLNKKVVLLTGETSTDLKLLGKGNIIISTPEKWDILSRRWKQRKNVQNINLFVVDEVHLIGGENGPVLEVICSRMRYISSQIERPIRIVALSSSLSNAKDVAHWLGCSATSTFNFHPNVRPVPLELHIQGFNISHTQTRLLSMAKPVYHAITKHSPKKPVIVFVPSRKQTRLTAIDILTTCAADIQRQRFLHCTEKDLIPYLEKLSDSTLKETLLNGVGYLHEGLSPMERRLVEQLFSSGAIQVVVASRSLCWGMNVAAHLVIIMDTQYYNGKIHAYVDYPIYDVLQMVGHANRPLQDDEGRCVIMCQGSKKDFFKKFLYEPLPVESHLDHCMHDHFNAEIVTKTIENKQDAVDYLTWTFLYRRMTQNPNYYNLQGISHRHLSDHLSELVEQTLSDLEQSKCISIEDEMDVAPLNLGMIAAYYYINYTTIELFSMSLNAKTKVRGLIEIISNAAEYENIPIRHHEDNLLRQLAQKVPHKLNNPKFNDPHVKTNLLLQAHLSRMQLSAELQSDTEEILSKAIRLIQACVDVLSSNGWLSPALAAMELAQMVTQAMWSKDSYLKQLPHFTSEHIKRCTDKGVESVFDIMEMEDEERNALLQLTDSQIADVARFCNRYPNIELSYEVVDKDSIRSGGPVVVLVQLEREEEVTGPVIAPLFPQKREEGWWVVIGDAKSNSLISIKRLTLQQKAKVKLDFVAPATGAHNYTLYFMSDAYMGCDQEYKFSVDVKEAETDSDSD
UniProt P51531, whole entry, looked up: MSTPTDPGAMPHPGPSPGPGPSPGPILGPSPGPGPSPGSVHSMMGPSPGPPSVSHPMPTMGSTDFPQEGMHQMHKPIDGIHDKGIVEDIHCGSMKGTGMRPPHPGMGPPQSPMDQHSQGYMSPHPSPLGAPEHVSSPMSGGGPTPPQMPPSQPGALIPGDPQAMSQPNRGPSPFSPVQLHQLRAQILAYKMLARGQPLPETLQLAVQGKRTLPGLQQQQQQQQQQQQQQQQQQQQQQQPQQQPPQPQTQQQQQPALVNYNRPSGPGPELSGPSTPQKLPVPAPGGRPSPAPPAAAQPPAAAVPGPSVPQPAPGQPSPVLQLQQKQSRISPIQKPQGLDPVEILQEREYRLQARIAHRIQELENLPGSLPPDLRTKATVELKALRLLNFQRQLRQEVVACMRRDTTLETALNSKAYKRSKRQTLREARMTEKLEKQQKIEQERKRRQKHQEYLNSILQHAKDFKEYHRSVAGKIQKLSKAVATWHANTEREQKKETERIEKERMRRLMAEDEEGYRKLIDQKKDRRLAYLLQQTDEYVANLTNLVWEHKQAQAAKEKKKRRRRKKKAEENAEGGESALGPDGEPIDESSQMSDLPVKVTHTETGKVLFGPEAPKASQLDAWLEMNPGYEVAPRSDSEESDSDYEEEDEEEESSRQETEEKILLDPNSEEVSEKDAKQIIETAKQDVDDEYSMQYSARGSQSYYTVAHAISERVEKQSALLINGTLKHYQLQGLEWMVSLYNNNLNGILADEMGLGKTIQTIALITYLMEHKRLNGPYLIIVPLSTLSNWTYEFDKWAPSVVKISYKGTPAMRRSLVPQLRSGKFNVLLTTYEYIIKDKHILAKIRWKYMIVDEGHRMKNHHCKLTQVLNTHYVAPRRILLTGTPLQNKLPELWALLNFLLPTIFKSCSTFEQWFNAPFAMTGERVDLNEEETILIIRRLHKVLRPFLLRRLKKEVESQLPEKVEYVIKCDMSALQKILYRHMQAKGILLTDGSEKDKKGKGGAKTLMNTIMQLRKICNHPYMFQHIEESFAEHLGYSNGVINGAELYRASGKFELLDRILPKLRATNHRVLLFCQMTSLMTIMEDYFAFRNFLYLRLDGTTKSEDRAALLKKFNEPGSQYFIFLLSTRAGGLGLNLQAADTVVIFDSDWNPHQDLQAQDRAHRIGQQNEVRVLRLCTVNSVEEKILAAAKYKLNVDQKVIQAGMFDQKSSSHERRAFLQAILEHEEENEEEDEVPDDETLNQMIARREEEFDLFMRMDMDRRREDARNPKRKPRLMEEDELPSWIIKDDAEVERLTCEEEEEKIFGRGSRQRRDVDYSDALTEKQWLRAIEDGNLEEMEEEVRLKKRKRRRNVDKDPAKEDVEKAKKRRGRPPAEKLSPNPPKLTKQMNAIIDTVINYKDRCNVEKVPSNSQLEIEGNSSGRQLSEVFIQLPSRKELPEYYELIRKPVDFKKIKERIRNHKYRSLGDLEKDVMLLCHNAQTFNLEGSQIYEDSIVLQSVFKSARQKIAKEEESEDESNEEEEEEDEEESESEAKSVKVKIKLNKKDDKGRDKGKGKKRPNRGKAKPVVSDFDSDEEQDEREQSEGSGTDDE
UniProt P35610, 84-104: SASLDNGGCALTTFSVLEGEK
UniProt Q9UJS0: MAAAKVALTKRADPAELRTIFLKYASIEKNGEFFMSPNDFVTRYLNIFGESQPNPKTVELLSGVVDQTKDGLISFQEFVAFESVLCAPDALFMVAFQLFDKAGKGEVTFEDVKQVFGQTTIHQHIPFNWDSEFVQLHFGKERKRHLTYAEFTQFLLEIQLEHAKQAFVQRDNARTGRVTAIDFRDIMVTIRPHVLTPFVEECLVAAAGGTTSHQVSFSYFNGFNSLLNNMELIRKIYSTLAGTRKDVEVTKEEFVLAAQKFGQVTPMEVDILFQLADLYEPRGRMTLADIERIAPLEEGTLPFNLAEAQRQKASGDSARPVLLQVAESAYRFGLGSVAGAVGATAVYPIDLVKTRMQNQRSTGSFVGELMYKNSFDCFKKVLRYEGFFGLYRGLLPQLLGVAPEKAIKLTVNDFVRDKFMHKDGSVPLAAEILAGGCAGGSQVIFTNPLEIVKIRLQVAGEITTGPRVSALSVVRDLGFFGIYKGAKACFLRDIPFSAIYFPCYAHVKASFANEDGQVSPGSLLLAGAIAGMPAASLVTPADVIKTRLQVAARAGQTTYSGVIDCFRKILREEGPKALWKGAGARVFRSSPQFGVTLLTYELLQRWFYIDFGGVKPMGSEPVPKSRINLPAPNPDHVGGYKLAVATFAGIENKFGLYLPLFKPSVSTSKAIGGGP
UniProt O95149: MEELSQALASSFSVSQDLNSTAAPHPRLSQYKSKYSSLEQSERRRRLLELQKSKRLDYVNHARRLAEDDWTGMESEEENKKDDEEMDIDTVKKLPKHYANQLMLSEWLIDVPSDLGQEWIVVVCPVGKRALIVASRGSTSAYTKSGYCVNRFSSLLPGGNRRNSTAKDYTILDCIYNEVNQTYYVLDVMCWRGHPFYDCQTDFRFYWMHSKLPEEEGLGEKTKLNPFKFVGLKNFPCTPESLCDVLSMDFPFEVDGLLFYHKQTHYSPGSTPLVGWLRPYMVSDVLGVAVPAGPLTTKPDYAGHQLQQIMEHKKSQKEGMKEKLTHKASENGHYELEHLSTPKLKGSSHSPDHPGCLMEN
UniProt Q96QE2: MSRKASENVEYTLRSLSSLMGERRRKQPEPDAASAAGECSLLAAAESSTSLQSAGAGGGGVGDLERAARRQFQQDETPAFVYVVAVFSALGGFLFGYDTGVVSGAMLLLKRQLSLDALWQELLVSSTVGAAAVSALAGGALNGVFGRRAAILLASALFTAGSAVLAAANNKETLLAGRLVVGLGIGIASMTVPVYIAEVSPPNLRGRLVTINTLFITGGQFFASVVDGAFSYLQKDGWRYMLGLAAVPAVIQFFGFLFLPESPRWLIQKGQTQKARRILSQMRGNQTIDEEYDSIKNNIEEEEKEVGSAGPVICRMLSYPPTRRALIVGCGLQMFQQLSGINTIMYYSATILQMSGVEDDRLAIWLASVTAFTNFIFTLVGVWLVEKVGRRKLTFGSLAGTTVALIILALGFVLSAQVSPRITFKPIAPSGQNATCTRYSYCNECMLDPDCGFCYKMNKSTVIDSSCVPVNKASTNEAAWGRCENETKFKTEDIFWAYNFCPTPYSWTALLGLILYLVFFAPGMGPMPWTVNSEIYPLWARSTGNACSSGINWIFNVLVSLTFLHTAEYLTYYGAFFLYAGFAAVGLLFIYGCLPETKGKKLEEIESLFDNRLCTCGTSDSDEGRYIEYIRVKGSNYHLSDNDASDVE
UniProt Q9H4F8: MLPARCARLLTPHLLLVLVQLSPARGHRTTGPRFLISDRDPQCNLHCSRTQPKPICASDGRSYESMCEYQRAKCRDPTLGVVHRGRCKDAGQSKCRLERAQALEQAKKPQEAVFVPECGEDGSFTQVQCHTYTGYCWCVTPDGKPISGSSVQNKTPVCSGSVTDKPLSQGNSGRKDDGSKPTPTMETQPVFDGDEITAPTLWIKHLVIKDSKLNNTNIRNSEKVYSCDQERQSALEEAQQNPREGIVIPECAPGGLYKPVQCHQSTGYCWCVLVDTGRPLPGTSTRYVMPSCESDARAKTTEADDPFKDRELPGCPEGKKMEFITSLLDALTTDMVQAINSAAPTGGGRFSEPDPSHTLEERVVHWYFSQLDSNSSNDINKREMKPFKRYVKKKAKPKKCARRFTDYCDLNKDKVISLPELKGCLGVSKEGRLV
UniProt Q13485: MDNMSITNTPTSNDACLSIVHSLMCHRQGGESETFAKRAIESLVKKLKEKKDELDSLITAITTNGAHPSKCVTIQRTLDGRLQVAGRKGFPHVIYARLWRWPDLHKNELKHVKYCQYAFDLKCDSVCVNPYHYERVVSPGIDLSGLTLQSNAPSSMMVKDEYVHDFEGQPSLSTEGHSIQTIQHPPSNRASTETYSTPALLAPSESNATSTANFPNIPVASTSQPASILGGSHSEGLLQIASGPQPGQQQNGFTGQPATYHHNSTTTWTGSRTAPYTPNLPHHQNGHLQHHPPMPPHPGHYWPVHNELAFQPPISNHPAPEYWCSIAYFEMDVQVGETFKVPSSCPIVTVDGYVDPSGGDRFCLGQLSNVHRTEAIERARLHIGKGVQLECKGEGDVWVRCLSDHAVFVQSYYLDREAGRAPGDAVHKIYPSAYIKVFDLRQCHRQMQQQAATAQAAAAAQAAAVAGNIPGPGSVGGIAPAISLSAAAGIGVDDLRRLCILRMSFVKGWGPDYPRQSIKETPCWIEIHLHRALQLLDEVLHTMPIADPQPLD

compound: ClCC(=O)N[C@@H]1CCCc2ccccc12; experiment: log2 mean competition ratio of IA-DTB cysteine labelling (DMSO/compound) (log2 ratio); higher = stronger cysteine engagement by compound; conditions: 50 µM; treatment time: 4 h; cell line lysate: HEK293T
Method: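 IA-DTB competitive cysteine chemoproteomics in HEK293T RIPA lysate. Lysates were treated with compound 29 or 30 at 50 or 200 µM for 4 h, then IA-DTB (500 µM, 1 h), trypsin-digested, NeutrAvidin-enriched and analysed by diaPASEF. Competition ratio = intensity DMSO / intensity compound (n=4 treated, n=64 DMSO); binding: mean log2 CR ≥ 1 and p ≤ 0.05 plus QC filters. Target is the cysteine site.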

Target | log2 mean competition ratio
SNRNP200 C428 (UniProt O75643) | -0.138
SNX13 C62 (UniProt Q9Y5W8) | -0.00499
SMYD3 C41 (UniProt Q9H7B4) | -0.0705
SLC39A6 C146 (UniProt Q13433) | 0.0598
SMARCA2 C1175 (UniProt P51531) | 0.00549
SMC5 C726 (UniProt Q8IY18) | -0.136
SLC26A6 C628 (UniProt Q9BXS9) | -0.251
SOAT1 C92 (UniProt P35610) | -0.0798
SMCHD1 C1445 (UniProt A6NHR9) | -0.4
SMG5 C109 (UniProt Q9UPR3) | -0.0302
SMARCAD1 C568 (UniProt Q9H4L7) | -0.0116
SLC25A13 C377 (UniProt Q9UJS0) | 0.0915
SNUPN C356 (UniProt O95149) | 0.317
SLC2A13 C467 (UniProt Q96QE2) | -0.22
SLC43A1 C384 (UniProt O75387) | -0.0445
SMOC1 C67 (UniProt Q9H4F8) | 0.436
SMG1 C890 (UniProt Q96Q15) | 0.0576
SON C92 (UniProt P18583) | 0.27
SLC25A21 C46 (UniProt Q9BQT8) | -0.0616
SMAD4 C391 (UniProt Q13485) | -0.286

same assay, conditions: 200 µM; treatment time: 4 h; cell line lysate: HEK293T

Target | log2 mean competition ratio
SNRNP200 C428 (UniProt O75643) | -0.131
SNX13 C62 (UniProt Q9Y5W8) | -0.225
SMYD3 C41 (UniProt Q9H7B4) | -0.0753
SLC39A6 C146 (UniProt Q13433) | -0.205
SMARCA2 C1175 (UniProt P51531) | 0.0881
SMC5 C726 (UniProt Q8IY18) | -0.0566
SLC26A6 C628 (UniProt Q9BXS9) | 0.121
SOAT1 C92 (UniProt P35610) | -0.0664
SMCHD1 C1445 (UniProt A6NHR9) | 0.291
SMG5 C109 (UniProt Q9UPR3) | -0.141
SMARCAD1 C568 (UniProt Q9H4L7) | -0.269
SLC25A13 C377 (UniProt Q9UJS0) | -0.125
SNUPN C356 (UniProt O95149) | 0.119
SLC2A13 C467 (UniProt Q96QE2) | 0.0371
SLC43A1 C384 (UniProt O75387) | 0.0344
SMOC1 C67 (UniProt Q9H4F8) | 0.132
SMG1 C890 (UniProt Q96Q15) | -0.375
SON C92 (UniProt P18583) | -0.111
SLC25A21 C46 (UniProt Q9BQT8) | 0.0802
SMAD4 C391 (UniProt Q13485) | -0.206
